According to publication PMC7547737:
These are yes or no findings as the source states them, for the method shown. Binding seen in cells or lysates may run through a third protein. Some results given as binding are weak or reduced against the parent protein; the word gives no strength.

Sequences of proteins named here, by UniProt entry; tags and fusion partners are left off.
UniProt P31749: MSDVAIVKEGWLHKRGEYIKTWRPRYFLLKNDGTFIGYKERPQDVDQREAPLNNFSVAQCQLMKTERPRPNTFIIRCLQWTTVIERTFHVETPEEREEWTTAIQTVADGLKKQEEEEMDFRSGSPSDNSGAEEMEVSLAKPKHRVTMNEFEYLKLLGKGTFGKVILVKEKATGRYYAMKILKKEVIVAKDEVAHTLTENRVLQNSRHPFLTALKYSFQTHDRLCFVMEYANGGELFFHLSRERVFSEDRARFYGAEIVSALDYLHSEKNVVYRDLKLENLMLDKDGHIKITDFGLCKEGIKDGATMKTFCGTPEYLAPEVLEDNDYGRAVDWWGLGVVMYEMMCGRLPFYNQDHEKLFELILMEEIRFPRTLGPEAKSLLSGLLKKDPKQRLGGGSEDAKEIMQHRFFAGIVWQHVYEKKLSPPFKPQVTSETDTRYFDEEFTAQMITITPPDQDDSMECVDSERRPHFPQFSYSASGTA
UniProt P62714: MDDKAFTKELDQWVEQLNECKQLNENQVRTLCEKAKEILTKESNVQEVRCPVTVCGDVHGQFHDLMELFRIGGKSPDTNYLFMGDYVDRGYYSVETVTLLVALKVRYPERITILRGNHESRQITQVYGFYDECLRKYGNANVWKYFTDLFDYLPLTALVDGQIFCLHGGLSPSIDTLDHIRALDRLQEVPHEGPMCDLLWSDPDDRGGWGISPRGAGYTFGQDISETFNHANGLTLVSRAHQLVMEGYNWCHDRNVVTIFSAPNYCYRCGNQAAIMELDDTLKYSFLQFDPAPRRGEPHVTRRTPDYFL

Biological target: FLAG-tagged wt AKT1 (UniProt P31749)
Assay: co-IP; SK-Br3 cells transfected with FLAG-tagged AKT constructs, starved with U0126, treated with TZ 20 min, cross-linked with DSP; anti-FLAG magnetic beads, 3 h at 4 °C; Western blot, amounts normalised on precipitated protein and input

- binding: binds
Substance: Ser/Thr-protein phosphatase 2A (PP2A)-catalytic subunit beta isoform (from UniProt P62714 1-309) (enzyme)
